Measurements: publication PMC10298087
Residue numbers refer to the chain shown, from its start. These are yes or no findings as the source states them, for the method shown. In cells and extracts the contact can be indirect. Some results given as binding are weak or reduced against the parent protein; the word gives no strength. For some assays here: Tags and fused reporters may be left off the sequences shown.

The chains behind the UniProt entries cited, without tags or fusion partners.
UniProt Q96NG5: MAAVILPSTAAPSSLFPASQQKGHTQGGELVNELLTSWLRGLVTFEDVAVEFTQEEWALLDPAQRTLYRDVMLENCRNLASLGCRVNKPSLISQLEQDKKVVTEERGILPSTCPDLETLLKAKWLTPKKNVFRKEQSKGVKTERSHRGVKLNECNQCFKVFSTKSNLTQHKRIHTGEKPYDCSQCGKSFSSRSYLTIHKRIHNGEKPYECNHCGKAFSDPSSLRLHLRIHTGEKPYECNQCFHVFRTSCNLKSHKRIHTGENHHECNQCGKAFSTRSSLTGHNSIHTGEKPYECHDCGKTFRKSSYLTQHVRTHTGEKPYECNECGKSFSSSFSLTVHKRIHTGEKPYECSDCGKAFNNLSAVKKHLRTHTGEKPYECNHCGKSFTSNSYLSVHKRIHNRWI
UniProt P59923: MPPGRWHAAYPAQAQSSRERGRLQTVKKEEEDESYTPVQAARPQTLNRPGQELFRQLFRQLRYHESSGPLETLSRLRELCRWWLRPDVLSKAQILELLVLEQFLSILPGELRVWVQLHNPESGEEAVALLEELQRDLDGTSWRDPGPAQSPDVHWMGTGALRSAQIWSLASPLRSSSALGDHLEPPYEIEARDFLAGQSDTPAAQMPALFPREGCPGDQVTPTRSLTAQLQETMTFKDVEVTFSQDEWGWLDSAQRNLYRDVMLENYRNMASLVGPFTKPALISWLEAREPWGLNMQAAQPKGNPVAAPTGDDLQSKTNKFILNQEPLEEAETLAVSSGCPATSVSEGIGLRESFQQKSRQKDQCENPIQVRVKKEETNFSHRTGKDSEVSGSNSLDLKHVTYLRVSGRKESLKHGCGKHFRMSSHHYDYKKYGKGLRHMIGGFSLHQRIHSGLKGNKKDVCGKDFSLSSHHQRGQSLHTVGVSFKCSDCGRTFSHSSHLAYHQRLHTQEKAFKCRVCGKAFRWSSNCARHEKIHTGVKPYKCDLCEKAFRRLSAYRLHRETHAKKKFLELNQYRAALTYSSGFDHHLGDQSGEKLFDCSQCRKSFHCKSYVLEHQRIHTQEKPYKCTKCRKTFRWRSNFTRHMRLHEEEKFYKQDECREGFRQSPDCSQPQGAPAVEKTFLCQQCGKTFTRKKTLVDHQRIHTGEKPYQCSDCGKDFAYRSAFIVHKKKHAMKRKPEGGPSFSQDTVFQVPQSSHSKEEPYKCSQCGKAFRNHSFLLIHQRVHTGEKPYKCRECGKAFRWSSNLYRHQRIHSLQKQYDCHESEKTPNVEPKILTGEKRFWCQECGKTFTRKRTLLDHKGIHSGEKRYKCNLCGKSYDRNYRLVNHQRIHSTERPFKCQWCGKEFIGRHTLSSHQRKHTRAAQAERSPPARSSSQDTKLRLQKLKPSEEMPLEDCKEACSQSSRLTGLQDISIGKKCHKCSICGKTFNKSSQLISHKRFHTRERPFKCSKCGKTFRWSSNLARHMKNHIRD
UniProt A8K8V0: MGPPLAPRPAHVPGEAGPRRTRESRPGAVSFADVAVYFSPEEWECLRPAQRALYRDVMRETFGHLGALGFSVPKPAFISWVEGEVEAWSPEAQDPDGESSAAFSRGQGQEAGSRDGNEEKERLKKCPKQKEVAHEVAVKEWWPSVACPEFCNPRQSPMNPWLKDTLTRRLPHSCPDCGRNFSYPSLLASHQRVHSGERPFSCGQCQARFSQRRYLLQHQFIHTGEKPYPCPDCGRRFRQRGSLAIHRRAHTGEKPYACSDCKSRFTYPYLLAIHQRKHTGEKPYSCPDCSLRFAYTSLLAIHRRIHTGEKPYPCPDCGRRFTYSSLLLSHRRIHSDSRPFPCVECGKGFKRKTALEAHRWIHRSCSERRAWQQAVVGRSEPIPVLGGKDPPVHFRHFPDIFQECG

Key:
[1] = biological target: T1, HA-tagged human TRIM28-K304R (human) (UniProt Q13263); experiment: co-IP; HA-tagged human TRIM28 (WT, K304Q, K304R) cotransfected with Myc-DDK-tagged ZNF558 or ZNF785; TRIM28-KO cells by the text, HEK293T cells by the legend; three independent experiments
T1 sequence: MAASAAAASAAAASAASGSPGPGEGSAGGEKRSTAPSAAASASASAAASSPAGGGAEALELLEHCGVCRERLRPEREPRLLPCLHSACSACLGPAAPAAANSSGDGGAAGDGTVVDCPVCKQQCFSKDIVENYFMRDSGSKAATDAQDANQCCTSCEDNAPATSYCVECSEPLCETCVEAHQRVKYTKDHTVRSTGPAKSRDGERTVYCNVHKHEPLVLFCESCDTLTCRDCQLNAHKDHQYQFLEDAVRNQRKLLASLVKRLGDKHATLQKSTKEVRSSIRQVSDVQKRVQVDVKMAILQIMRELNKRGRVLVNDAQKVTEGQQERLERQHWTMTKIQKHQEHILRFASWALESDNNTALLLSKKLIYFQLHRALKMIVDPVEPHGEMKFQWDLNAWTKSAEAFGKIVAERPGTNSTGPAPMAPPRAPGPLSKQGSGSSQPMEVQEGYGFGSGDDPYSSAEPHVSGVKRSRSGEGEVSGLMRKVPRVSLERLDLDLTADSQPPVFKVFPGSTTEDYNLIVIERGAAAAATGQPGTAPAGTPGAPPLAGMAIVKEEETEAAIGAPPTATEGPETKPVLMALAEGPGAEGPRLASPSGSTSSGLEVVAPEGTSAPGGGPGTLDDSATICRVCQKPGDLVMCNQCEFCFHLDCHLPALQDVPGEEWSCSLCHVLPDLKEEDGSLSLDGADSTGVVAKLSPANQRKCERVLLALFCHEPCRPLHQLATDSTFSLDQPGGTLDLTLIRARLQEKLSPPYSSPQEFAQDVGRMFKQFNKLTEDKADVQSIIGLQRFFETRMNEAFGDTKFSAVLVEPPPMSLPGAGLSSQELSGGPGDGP

[2] = biological target: T2, HA-tagged human TRIM28-K304Q (human) (UniProt Q13263); experiment: as above
T2 sequence: T1 sequence with R304Q

[3] = biological target: HA-tagged human TRIM28 wild-type (human) (UniProt Q13263); experiment: as above
[4] = biological target: wild-type TRIM28 (endogenous, K562 cells) (human (endogenous in K562)) (UniProt Q13263); experiment: co-IP; endogenous proteins in wild-type, TRIM28-K304Q KI and TRIM28-KO K562 cells; precipitated by anti-TRIM28-N, Western blotted with anti-ZNF445
[5] = biological target: T3, TRIM28-K304Q (endogenous, knock-in K562 clone Q1) (human (endogenous in K562)) (UniProt Q13263); experiment: as above
T3 sequence: T1 sequence with R304Q

Myc-DDK-tagged ZNF558 (from UniProt Q96NG5 1-402)
binding [1]: binds
binding [2]: binds weakly
binding [3]: binds

ZNF445 (from UniProt P59923 1-1031)
binding [4]: binds
binding [5]: binds weakly

Myc-DDK-tagged ZNF785 (from UniProt A8K8V0 1-405)
binding [1]: binds
binding [2]: binds
binding [3]: binds
